# PubChem BioAssay AID1159578, Peter MacCallum Cancer Centre | 2015
# Assay: 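Knock-downs that alter how fast lymphatic endothelial cells migrate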 (primary screen)
# System: human lymphatic endothelial cells
# Reagents: siRNA pool against human genes, 40 nM
# Timing: 48 h after transfection
# Measurement: 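Cells stained with dye and imaged after a scratch; covered wound area and nuclei counted, duplicates averaged, migration set against mock wells and turned into a robust z-score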
# Scale: migration robust z-score: higher = faster migration into the scratch; migration relative to mock: higher = more scratch area covered than mock; nuclei per well: higher = more cells in the well
# Call rule: 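Migration changed when robust z exceeds 2 or falls below -2 and mean nuclei number is at least 3300; otherwise not called changed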
# Meaning of the calls: active = migration changed; inactive = no migration change, or too few cells
# The whole screen tested about 18,000 reagents; this is a part drawn at random. About 1,030 of all reagents (5.7%) were called active. 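Inactive calls also include pools with fewer than 3300 nuclei, whose migration was not assessed.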 The raw values are shown without normalisation.
gene,migration robust z-score,migration class with cell-count check,migration relative to mock,"nuclei per well, duplicate mean",outcome
SEL1L3 (GeneID 23231),-0.11,migration z between -2 and 2; enough cells,0.86,6342,inactive
CLCN2 (GeneID 1181),-0.08,migration z between -2 and 2; enough cells,0.79,5020,inactive
KRTAP4-5 (GeneID 85289),0.6,migration z between -2 and 2; enough cells,1.04,5056,inactive
CRISPLD2 (GeneID 83716),0.28,migration z between -2 and 2; enough cells,0.96,5292,inactive
OR4E2 (GeneID 26686),2.27,migration z above 2; enough cells,1.47,5922,active
PER1 (GeneID 5187),2.21,migration z above 2; enough cells,1.46,6091,active
UEVLD (GeneID 55293),-0.93,migration z between -2 and 2; enough cells,0.62,6128,inactive
FAHD2B (GeneID 151313),-1.68,migration z between -2 and 2; enough cells,0.48,4620,inactive
ATXN7L2 (GeneID 127002),0.46,migration z between -2 and 2; enough cells,1,6132,inactive
WNT5B (GeneID 81029),-0.55,migration z between -2 and 2; enough cells,0.74,6067,inactive
HSPG2 (GeneID 3339),-0.74,migration z between -2 and 2; enough cells,0.7,5664,inactive
ENKUR (GeneID 219670),1.62,migration z between -2 and 2; enough cells,1.31,6590,inactive
INTS15 (GeneID 79034),1.29,migration z between -2 and 2; enough cells,1.22,5278,inactive
ACSBG2 (GeneID 81616),-1.01,migration z between -2 and 2; enough cells,0.61,5372,inactive
LPAL2 (GeneID 80350),-2.34,under 3300 nuclei; migration not judged,0.36,3288,inactive
MCEE (GeneID 84693),-0.84,migration z between -2 and 2; enough cells,0.64,3494,inactive
TACC3 (GeneID 10460),0.43,migration z between -2 and 2; enough cells,1,6850,inactive
OR4D5 (GeneID 219875),-0.09,migration z between -2 and 2; enough cells,0.86,7504,inactive
LYSMD2 (GeneID 256586),0.75,migration z between -2 and 2; enough cells,1.07,7613,inactive
TBXT (GeneID 6862),-0.38,migration z between -2 and 2; enough cells,0.78,6028,inactive
SDC1 (GeneID 6382),-1.23,migration z between -2 and 2; enough cells,0.56,5552,inactive
KLHDC2 (GeneID 23588),1.08,migration z between -2 and 2; enough cells,1.17,5144,inactive
NR2C2AP (GeneID 126382),-0.62,migration z between -2 and 2; enough cells,0.73,4846,inactive
LINC00452 (GeneID 643365),0.86,migration z between -2 and 2; enough cells,1.11,5941,inactive
POLRMT (GeneID 5442),1.97,migration z between -2 and 2; enough cells,1.19,4854,inactive
TMEM39A (GeneID 55254),-0.57,migration z between -2 and 2; enough cells,0.74,5653,inactive
CFAP263 (GeneID 29070),-0.02,migration z between -2 and 2; enough cells,0.88,6334,inactive
CCNL1 (GeneID 57018),-0.1,migration z between -2 and 2; enough cells,0.78,5184,inactive
SLC10A4 (GeneID 201780),-0.44,migration z between -2 and 2; enough cells,0.72,5264,inactive
VGLL2 (GeneID 245806),-2.29,migration z below -2; enough cells,0.29,3488,active
PLEKHF1 (GeneID 79156),0.7,migration z between -2 and 2; enough cells,1.06,6158,inactive
ASB11 (GeneID 140456),-0.07,migration z between -2 and 2; enough cells,0.79,5417,inactive
HHATL (GeneID 57467),-1.51,migration z between -2 and 2; enough cells,0.5,4789,inactive
CDHR5 (GeneID 53841),-2.11,migration z below -2; enough cells,0.34,5556,active
LHX4 (GeneID 89884),0.31,migration z between -2 and 2; enough cells,0.86,6136,inactive
DHX35 (GeneID 60625),-0.2,migration z between -2 and 2; enough cells,0.84,6388,inactive
GNL3 (GeneID 26354),-0.79,migration z between -2 and 2; enough cells,0.69,5091,inactive

9 entries from above, ordered by “migration relative to mock”, ascending:
gene,migration robust z-score,migration class with cell-count check,migration relative to mock,"nuclei per well, duplicate mean",outcome
FAHD2B (GeneID 151313),-1.68,migration z between -2 and 2; enough cells,0.48,4620,inactive
UEVLD (GeneID 55293),-0.93,migration z between -2 and 2; enough cells,0.62,6128,inactive
WNT5B (GeneID 81029),-0.55,migration z between -2 and 2; enough cells,0.74,6067,inactive
CLCN2 (GeneID 1181),-0.08,migration z between -2 and 2; enough cells,0.79,5020,inactive
CRISPLD2 (GeneID 83716),0.28,migration z between -2 and 2; enough cells,0.96,5292,inactive
ATXN7L2 (GeneID 127002),0.46,migration z between -2 and 2; enough cells,1,6132,inactive
KRTAP4-5 (GeneID 85289),0.6,migration z between -2 and 2; enough cells,1.04,5056,inactive
PER1 (GeneID 5187),2.21,migration z above 2; enough cells,1.46,6091,active
OR4E2 (GeneID 26686),2.27,migration z above 2; enough cells,1.47,5922,active

Further reagents:
gene,migration robust z-score,migration class with cell-count check,migration relative to mock,"nuclei per well, duplicate mean",outcome
NME5 (GeneID 8382),-0.26,migration z between -2 and 2; enough cells,0.76,5964,inactive
MRPL24 (GeneID 79590),-0.18,migration z between -2 and 2; enough cells,0.84,6626,inactive
TRAM2 (GeneID 9697),-0.34,migration z between -2 and 2; enough cells,0.8,5056,inactive
PDE4B (GeneID 5142),1.68,migration z between -2 and 2; enough cells,1.13,6136,inactive
PIAS4 (GeneID 51588),-0.98,migration z between -2 and 2; enough cells,0.62,4710,inactive
CLNS1A (GeneID 1207),-0.68,migration z between -2 and 2; enough cells,0.68,5658,inactive
NAT2 (GeneID 10),1.25,migration z between -2 and 2; enough cells,1.04,3902,inactive
B9D2 (GeneID 80776),-0.81,migration z between -2 and 2; enough cells,0.68,6444,inactive
WNT10A (GeneID 80326),-1.03,migration z between -2 and 2; enough cells,0.62,5368,inactive
SRP19 (GeneID 6728),0.68,migration z between -2 and 2; enough cells,1.06,7084,inactive
LDHAL6A (GeneID 160287),-0.16,migration z between -2 and 2; enough cells,0.78,7632,inactive
SEMA4F (GeneID 10505),-0.92,migration z between -2 and 2; enough cells,0.64,5078,inactive
USP50 (GeneID 373509),0.8,migration z between -2 and 2; enough cells,1.09,6280,inactive
HDHD5 (GeneID 27440),2.9,migration z above 2; enough cells,1.64,5614,active
ACSM3 (GeneID 6296),-0.5,migration z between -2 and 2; enough cells,0.71,5394,inactive
KLC1 (GeneID 3831),-0.68,migration z between -2 and 2; enough cells,0.68,4641,inactive
ETFDH (GeneID 2110),0.2,migration z between -2 and 2; enough cells,0.84,5590,inactive
SLC25A36 (GeneID 55186),0.44,migration z between -2 and 2; enough cells,0.89,5997,inactive
PSORS1C1 (GeneID 170679),0.03,migration z between -2 and 2; enough cells,0.9,5654,inactive
XKR8 (GeneID 55113),-0.58,migration z between -2 and 2; enough cells,0.74,6271,inactive
